## Drug screen on melanoma cell lines: cell count

Source: doi:10.1371/journal.pone.0140310, primary screening data, rounded.

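Human melanoma cell lines in 1,536-well plates were treated with a pair of drugs for 72 h, then fixed, stained and imaged. Each value is the count of nuclei relative to DMSO-treated wells, in %, so that 100 equals the control. Every drug was used at one fixed concentration, the lower of two screened (a fifth of the higher). These are primary screening values without error estimates.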 An unselected part of the screen is shown. An entry leaves out what has no value listed here. A dash means that no value is listed here.

Compounds and concentrations:
GW0742: Cc1cc(SCc2sc(-c3ccc(C(F)(F)F)c(F)c3)nc2C)ccc1OCC(=O)O at 2 µM
vincristine: CC[C@]1(O)C[C@H]2CN(CCc3c([nH]c4ccccc34)[C@@](C(=O)OC)(c3cc4c(cc3OC)N(C=O)[C@H]3[C@@](O)(C(=O)OC)[C@H](OC(C)=O)[C@]5(CC)C=CCN6CC[C@]43[C@@H]65)C2)C1 at 0.0001 µM
tozasertib: Cc1cc(Nc2cc(N3CCN(C)CC3)nc(Sc3ccc(NC(=O)C4CC4)cc3)n2)n[nH]1 at 0.006 µM
dasatinib: Cc1nc(Nc2ncc(C(=O)Nc3c(C)cccc3Cl)s2)cc(N2CCN(CCO)CC2)n1 at 0.004 µM
LFM-A13: C/C(O)=C(\C#N)C(=O)Nc1cc(Br)ccc1Br at 2 µM
MK-2206: NC1(c2ccc(-c3nc4ccn5c(=O)[nH]nc5c4cc3-c3ccccc3)cc2)CCC1 at 0.4 µM
dovitinib: CN1CCN(c2ccc3nc(-c4c(N)c5c(F)cccc5[nH]c4=O)[nH]c3c2)CC1 at 0.1 µM
ruxolitinib: N#CC[C@H](C1CCCC1)n1cc(-c2ncnc3[nH]ccc23)cn1 at 1 µM

| Cell line | LFM-A13 and dovitinib | tozasertib and dasatinib | dovitinib and MK-2206 | MK-2206 and vincristine | tozasertib and GW0742 | ruxolitinib and dovitinib | dasatinib and MK-2206 | dovitinib and GW0742 |
|---|---|---|---|---|---|---|---|---|
| A101D | 106 | 80.9 | 86.5 | 55.3 | 104 | 109 | 86.2 | 98.5 |
| C32 | 88.3 | 87.9 | 84.5 | 56.0 | 88.9 | 108 | 64.3 | 92.0 |
| COLO 792 | 97.2 | 63.9 | 54.1 | 80.4 | 101 | 99.8 | 50.2 | 103 |
| IST-MEL1 | 94.8 | 80.8 | 88.4 | 91.8 | 92.3 | 102 | 82.3 | 104 |
| G-361 | 85.5 | 83.6 | 94.2 | 92.7 | 107 | 102 | 91.6 | 95.3 |
| LB2518-MEL | 95.1 | 104 | 87.1 | 83.8 | - | 125 | 95.7 | - |
| 501mel | 83.9 | - | - | - | - | - | - | - |
| A375 | - | 79.0 | 65.4 | 50.9 | - | 118 | 68.2 | - |
| IPC-298 | 101 | 89.4 | 92.0 | 101 | 107 | 111 | 97.5 | 99.3 |
| COLO 800 | 73.5 | 80.3 | 56.7 | 99.8 | 89.7 | 249 | 75.6 | 90.7 |
| LOX IMVI | 87.8 | 57.9 | 61.3 | 32.3 | 93.1 | 135 | 58.4 | 104 |
| MEL-HO | 98.6 | 73.7 | 73.8 | 76.1 | 98.1 | 100 | 65.9 | 104 |
| A2058 | 96.8 | 75.3 | 86.8 | 21.4 | 93.2 | 99.4 | 82.6 | 95.9 |
| COLO 829 | 74.2 | 71.2 | 88.3 | 97.6 | 88.5 | 124 | 92.3 | 78.1 |

Some entries from above, unchanged:

{"cell line": "501mel", "LFM-A13 and dovitinib": 83.9}
{"cell line": "LOX IMVI", "LFM-A13 and dovitinib": 87.8, "tozasertib and dasatinib": 57.9, "dovitinib and MK-2206": 61.3, "MK-2206 and vincristine": 32.3, "tozasertib and GW0742": 93.1, "ruxolitinib and dovitinib": 135, "dasatinib and MK-2206": 58.4, "dovitinib and GW0742": 104}